Results are given in words; binding and its absence hold for the method and conditions named. Binding calls can cover weak binding; strength is not graded here. One block for each binder: values may come before it.
Tests used:
CI-MPR receptor [1] = test: CI-MPR plate binding assay in presence of M6P, conditioned media, bound PPT1 activity; concentration axis relative (by activity), no unit
CI-MPR receptor [2] = test: CI-MPR-coated plate binding assay, conditioned media of HEK 293 cells
CI-MPR receptor [3] = test: CI-MPR-coated plate binding assay, conditioned media of HEK 293 cells; enzyme axis relative, no unit
CI-MPR receptor [4] = test: CI-MPR-coated plate binding assay, bound enzyme by Signature Peptide assay (FIG. 34)
CI-MPR receptor [5] = test: CI-MPR-coated plate binding assay, conditioned media of HEK 293 cells, bound TPP1 activity

binding (CI-MPR receptor [1]): binds
B1: PPT1-32 (wt-PPT1-vIGF2-32) (enzyme)
chain: DPPAPLPLVIWHGMGDSCCNPLSMGAIKKMVEKKIPGIYVLSLEIGKTLMEDVENSFFLNVNSQVTTVCQALAKDPKLQQGYNAMGFSQGGQFLRAVAQRCPSPPMINLISVGGQHQGVFGLPRCPGESSHICDFIRKTLNAGAYSKVVQERLVQAEYWHDPIKEDVYRNHSIFLADINQERGINESYKKNLMALKKFVMVKFLNDSIVDPVDSEWFGFYRSGQAKETIPLQETSLYTQDRLGLKEMDNAGQLVFLATEGDHLQLSEEWFYAHIIPFLGRPRAVPTQGGSGSGSTSSSRTLCGGELVDTLQFVCGDRGFLFSRGGGGSRGILEECCFRECDLALLETYCATPARSE

binding (CI-MPR receptor [2]): binds
binding (CI-MPR receptor [3]): binds
binding (CI-MPR receptor [4]): binds
B2: PPT1 engineered (enzyme)
chain: DPPAPLPLVIWHGMGDSCCNPLSMGAIKKMVEKKIPGIYVLSLEIGKTLMEDVENSFFLNVNSQVTTVCQALAKDPKLQQGYNAMGFSQGGQFLRAVAQRCPSPPMINLISVGGQHQGVFGLPRCPGESSHICDFIRKTLNAGAYSKVVQERLVQAEYWHDPIKEDVYRNHSIFLADINQERGINESYKKNLMALKKFVMVKFLNDSIVDPVDSEWFGFYRSGQAKETIPLQETSLYTQDRLGLKEMDNAGQLVFLATEGDHLQLSEEWFYAHIIPFLGRPRAVPTQGGSGSGSTSSSRTLCGGELVDTLQFVCGDRGFLFSRPASRVSRRSRGIVEECCFRECDLALLETYCATPARSE

binding (CI-MPR receptor [1]): binds
B3: PPT1-33 (wt-PPT1-vIGF2-8Q) (enzyme)
chain: B2 chain

binding (CI-MPR receptor [5]): binds
B4: Natural hTTP1 (enzyme)
enzyme: SYSPEPDQRRTLPPGWVSLGRADPEEELSLTFALRQQNVERLSELVQAVSDPSSPQYGKYLTLENVADLVRPSPLTLHTVQKWLLAAGAQKCHSVITQDFLTCWLSIRQAELLLPGAEFHHYVGGPTETHVVRSPHPYQLPQALAPHVDFVGGLHRFPPTSSLRQRPEPQVTGTVGLHLGVTPSVIRKRYNLTSQDVGSGTSNNSQACAQFLEQYFHDSDLAQFMRLFGGNFAHQASVARVVGQQGRGRAGIEASLDVQYLMSAGANISTWVYSSPGRHEGQEPFLQWLMLLSNESALPHVHTVSYGDDEDSLSSAYIQRVNTELMKAAARGLTLLFASGDSGAGCWSVSGRHQFRPTFPASSPYVTTVGGTSFQEPFLITNEIVDYISGGGFSNVFPRPSYQEEAVTKFLSSSPHLPPSSYFNASGRAYPDVAALSDGYWVVSNRVPIPWVSGTSASTPVFGGILSLINEHRILSGRPPLGFLNPRLYQQHGAGLFDVTRGCHESCLDEEVEGQGFCSGPGWDPVTGWGTPNFPALLKTLLNP
